Assay results as given in the supplement of paper PMC10373366.
Structures can show the parent of a compound that is named as a salt. This is one part of the list. Repeats are few or missing, and single values can be far off.

Test system: A2780
Test: cell growth inhibition ratio vs untreated control (CCK8); higher = stronger inhibition of cell viability
Conditions: 10 µM; 48 h
Method: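 Natural product library (Topscience) screened at 10 µM final concentration for 48 h on ovarian cancer A2780 cells and patient-derived ovarian cancer cells (PDC) in 96-well plates; viability read by CCK8 and reported as inhibition ratio (%) relative to untreated control. Single-dose primary screen.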

Row | Structure (SMILES) | cell growth inhibition ratio
1 | O=C1O[C@H]([C@H](O)CO)C([O-])=C1O.[Na+] [Sodium erythorbate] | 4.98%
2 | CCOC(=O)c1cc(O)c(O)c(O)c1 [Ethyl gallate] | 5.6%
3 | CCCCCCCCCC[C@H](C(=O)O)[C@]1(C(=O)O)CCC(=O)O1 [Spiculisporic Acid] | 6.14%
4 | CC(C)=CCC[C@](C)(O[C@@H]1O[C@H](CO[C@@H]2O[C@H](CO)[C@@H](O)[C@H](O)[C@H]2O)[C@@H](O)[C@H](O)[C@H]1O)[C@H]1CC[C@]2(C)[C@@H]1[C@H](O)C[C@@H]1[C@@]3(C)CC[C@H](O[C@@H]4O[C@H](CO)[C@@H](O)[C@H](O)[C@H]4O)C(C)(C)[C@@H]3CC[C@]12C [Gypenoside XVII] | 17.7%
5 | CCCCCCCCCC(=O)N[C@H]1[C@H](Oc2c3cc4cc2Oc2ccc(cc2Cl)[C@@H](O[C@@H]2O[C@H](CO)[C@@H](O)[C@H](O)[C@H]2NC(C)=O)[C@@H]2NC(=O)[C@H](NC(=O)[C@@H]4NC(=O)[C@H]4NC(=O)[C@@H](Cc5ccc(c(Cl)c5)O3)NC(=O)[C@H](N)c3ccc(O)c(c3)Oc3cc(O)cc4c3)c3ccc(O)c(c3)-c3c(OC4O[C@H](CO)[C@@H](O)[C@H](O)[C@@H]4O)cc(O)cc3[C@@H](C(=O)O)NC2=O)O[C@H](CO)[C@@H](O)[C@@H]1O (stereo not given in full) [Teicoplanin] | 16.2%
6 | COc1c2c(cc3oc(C)cc(=O)c13)OC(C(C)(C)O[C@@H]1O[C@H](CO)[C@@H](O)[C@H](O)[C@H]1O)C2 (stereo not given in full) [5-O-Methylvisammioside] | -3.28%
7 | CO[C@]1(CC[C@@H](C)CO[C@@H]2O[C@H](CO)[C@@H](O)[C@H](O)[C@H]2O)O[C@H]2C[C@H]3[C@@H]4CC=C5C[C@@H](O[C@@H]6O[C@H](CO)[C@@H](O[C@@H]7O[C@@H](C)[C@H](O)[C@@H](O)[C@H]7O)[C@H](O)[C@H]6O[C@@H]6O[C@@H](C)[C@H](O)[C@@H](O)[C@H]6O)CC[C@]5(C)[C@H]4CC[C@]3(C)[C@H]2[C@@H]1C [Methyl protodioscin] | 93.3%
8 | CC(=O)OC1CC2CCC1(C)C2(C)C (stereo not given) [Bornyl acetate] | 11.4%
9 | CN1c2ccccc2C(=O)N2CCc3c([nH]c4ccccc34)C21 (stereo in doubt) [Evodiamine] | 70.1%
10 | Cc1ncc(CSSCc2cnc(C)c(O)c2CO)c(CO)c1O [Pyrithioxin] | -4.82%
11 | NC(=O)CCC(N)C(=O)O (racemic) [DL-Glutamine] | 12.5%
12 | COc1cc(O)c2c(c1)C(=O)c1cc(C)cc(O)c1C2=O [Rheochrysidin] | -0.43%
13 | CC12CCC(CC1=O)C2(C)C [D-Camphor] | 2.93%
14 | Cc1ncc(CO)c(CO)c1O [Pyridoxine] | 2.73%
15 | CC[C@H](CC[C@@H](C)[C@H]1CC[C@H]2[C@@H]3CC=C4C[C@@H](O[C@@H]5O[C@H](CO)[C@@H](O)[C@H](O)[C@H]5O)CC[C@]4(C)[C@H]3CC[C@]12C)C(C)C [Eleutheroside A] | 15.3%
16 | O=c1cc(-c2ccc(O)c(O)c2)oc2cc(O[C@@H]3O[C@H](CO)[C@@H](O)[C@H](O)[C@H]3O)cc(O)c12 [Cynaroside] | 29.7%
17 | COc1ccc(-c2coc3cc(O[C@@H]4O[C@H](CO)[C@@H](O)[C@H](O)[C@H]4O)ccc3c2=O)cc1O [Calycosin-7-O-beta-D-glucoside] | 3.27%
18 | Cc1cc(O)cc(O)c1C(=O)O [Orsellinic acid] | -0.472%
19 | O=Cc1ccc(O)c(O)c1 [Protocatechualdehyde] | 16.4%
20 | COc1ccc(-c2cc(=O)c3c(O)cc(O)cc3o2)cc1O [Diosmetin] | 86.5%

In the list so far, 2 contain a carbonyl joined to an NH by a bond outside any ring.
Row | Structure (SMILES) | cell growth inhibition ratio
5 | CCCCCCCCCC(=O)N[C@H]1[C@H](Oc2c3cc4cc2Oc2ccc(cc2Cl)[C@@H](O[C@@H]2O[C@H](CO)[C@@H](O)[C@H](O)[C@H]2NC(C)=O)[C@@H]2NC(=O)[C@H](NC(=O)[C@@H]4NC(=O)[C@H]4NC(=O)[C@@H](Cc5ccc(c(Cl)c5)O3)NC(=O)[C@H](N)c3ccc(O)c(c3)Oc3cc(O)cc4c3)c3ccc(O)c(c3)-c3c(OC4O[C@H](CO)[C@@H](O)[C@H](O)[C@@H]4O)cc(O)cc3[C@@H](C(=O)O)NC2=O)O[C@H](CO)[C@@H](O)[C@@H]1O (stereo not given in full) [Teicoplanin] | 16.2%
11 | NC(=O)CCC(N)C(=O)O (racemic) [DL-Glutamine] | 12.5%

More records follow:

Row | Structure (SMILES) | cell growth inhibition ratio
21 | NC(=O)NC1NC(=O)NC1=O (stereo not given) [Allantoin] | 5.48%
22 | CC(C)=C[C@H]1C[C@](C)(O)[C@@H]2[C@H]3CC[C@@H]4[C@@]5(C)CC[C@H](OC6OC[C@H](O)[C@H](O[C@@H]7O[C@H](CO[C@@H]8O[C@H](CO)[C@@H](O)[C@H](O)[C@H]8O)[C@@H](O)[C@H](O)[C@H]7O[C@@H]7OC[C@@H](O)[C@H](O)[C@H]7O)[C@H]6O[C@@H]6O[C@@H](C)[C@H](O)[C@@H](O)[C@H]6O)C(C)(C)[C@@H]5CC[C@@]4(C)C34CO[C@@]2(C4)O1 (stereo not given in full) [Jujuboside A] | 2.72%
23 | N[C@@H]1CONC1=O [D-Cycloserine] | 6.67%
24 | CC(C)=CCC[C@](C)(O[C@@H]1O[C@H](CO)[C@@H](O)[C@H](O)[C@H]1O)[C@H]1CC[C@]2(C)[C@@H]1[C@H](O)C[C@@H]1[C@@]3(C)CC[C@H](O)C(C)(C)[C@@H]3[C@@H](O[C@@H]3O[C@H](CO)[C@@H](O)[C@H](O)[C@H]3O)C[C@]12C [Ginsenoside Rg1] | -0.713%
25 | O=c1[nH]cnc2c1ncn2[C@@H]1O[C@H](CO)[C@@H](O)[C@H]1O [Inosine] | 13.2%
26 | C=C(C)[C@@H]1CC[C@]2(C(=O)O)CC[C@]3(C)[C@H](CC[C@@H]4[C@@]5(C)CC[C@H](O)C(C)(C)[C@@H]5CC[C@]43C)[C@@H]12 [Betulinic acid] | 7.15%
27 | O=C(O)C1=CO[C@@H](O[C@@H]2O[C@H](CO)[C@@H](O)[C@H](O)[C@H]2O)[C@@H]2C(CO)=CC[C@H]12 [Geniposidic Acid] | 0.207%
28 | OC[C@H]1O[C@@H](Oc2cc(O)cc(/C=C/c3ccc(O)cc3)c2)[C@H](O)[C@@H](O)[C@@H]1O [Polydatin] | 18.2%
29 | CC(C)=CCC[C@](C)(O[C@@H]1O[C@H](CO[C@@H]2OC[C@H](O)[C@H](O)[C@H]2O)[C@@H](O)[C@H](O)[C@H]1O)[C@H]1CC[C@]2(C)[C@@H]1[C@H](O)C[C@@H]1[C@@]3(C)CC[C@H](O[C@@H]4O[C@H](CO)[C@@H](O)[C@H](O)[C@H]4O[C@@H]4O[C@H](CO)[C@@H](O)[C@H](O)[C@H]4O)C(C)(C)[C@@H]3CC[C@]12C [Ginsenoside Rb2] | 8.8%
30 | OC[C@H]1O[C@@H](O[C@@H]2[C@@H](CO)OC(O)(CO)[C@H]2O)[C@H](O)[C@@H](O)[C@H]1O (mixture of isomers) [Lactulose] | 5.94%
31 | OC[C@H]1O[C@@H](OCCc2ccc(O)cc2)[C@H](O)[C@@H](O)[C@@H]1O [Salidroside] | 4.97%
32 | COc1ccc2c(c1OC)C(=O)O[C@@H]2[C@H]1c2c(cc3c(c2OC)OCO3)CCN1C [Noscapine hydrochloride] | 5%
33 | CC1(C)CC[C@]2(C(=O)O)CC[C@]3(C)C(=CC[C@@H]4[C@@]5(C)CC[C@H](O)[C@@](C)(CO)[C@@H]5CC[C@]43C)[C@@H]2C1 [Hederagenin] | -1.46%
34 | CCCCCCCCCCCCCCCCCCCCCCCCCCCCCCO [Triacontanol] | 7.86%
35 | COC(=O)[C@H]1[C@H]2C[C@@H]3c4[nH]c5cc(OC)ccc5c4CCN3C[C@H]2C[C@@H](OC(=O)c2cc(OC)c(OC)c(OC)c2)[C@@H]1OC [Reserpine] | 28.9%
36 | C=C(NC(=O)C(=C)NC(=O)c1csc(C2=N[C@@H]3c4csc(n4)[C@H]4NC(=O)c5csc(n5)[C@H]([C@](C)(O)[C@@H](C)O)NC(=O)[C@H]5CSC(=N5)/C(=C/C)NC(=O)[C@H]([C@@H](C)O)NC(=O)c5csc(n5)[C@]3(CC2)NC(=O)[C@H](C)NC(=O)C(=C)NC(=O)[C@H](C)NC(=O)[C@H]([C@@H](C)CC)N[C@@H]2C=Cc3c([C@H](C)O)cc(nc3[C@H]2O)C(=O)O[C@@H]4C)n1)C(N)=O [Thiostrepton] | 5.5%
37 | CC(C)c1cccc(O)c(=O)c1 [β-thujaplicin] | 59.6%
38 | C[C@@H]1CC[C@]2(C(=O)O[C@@H]3O[C@H](CO)[C@@H](O)[C@H](O)[C@H]3O)CC[C@]3(C)C(=CC[C@@H]4[C@@]5(C)CC[C@H](O)[C@@](C)(CO)[C@@H]5CC[C@]43C)[C@@H]2[C@]1(C)O [Pedunculoside] | 1.05%
39 | C[C@H]1[C@H](C)CC[C@]2(C(=O)O)CC[C@]3(C)C(=CC[C@@H]4[C@@]5(C)CCC(=O)C(C)(C)[C@@H]5CC[C@]43C)[C@H]12 [Ursonic Acid] | 44.3%
40 | CN[C@@H]1[C@@H](O[C@H]2O[C@H](CO)[C@@H](N)[C@H](O)[C@H]2O)OC2C[C@@H](N)[C@@H](O[C@H]3[C@H](O)[C@@H](O)[C@H](N)C[C@@H]3N)OC2[C@@H]1O (stereo not given in full) [Apramycin sulfate] | 3.88%
